The values below come from the supplement of paper PMC3334620.

Over roughly 33,000 sequences, “E-score (-0.5 to 0.5)” has its median near -0.016; the highest 2% begin near 0.3. This is one part of the list.

In this experiment the target is T1, Yer184c (UniProt P39961).
T1 sequence: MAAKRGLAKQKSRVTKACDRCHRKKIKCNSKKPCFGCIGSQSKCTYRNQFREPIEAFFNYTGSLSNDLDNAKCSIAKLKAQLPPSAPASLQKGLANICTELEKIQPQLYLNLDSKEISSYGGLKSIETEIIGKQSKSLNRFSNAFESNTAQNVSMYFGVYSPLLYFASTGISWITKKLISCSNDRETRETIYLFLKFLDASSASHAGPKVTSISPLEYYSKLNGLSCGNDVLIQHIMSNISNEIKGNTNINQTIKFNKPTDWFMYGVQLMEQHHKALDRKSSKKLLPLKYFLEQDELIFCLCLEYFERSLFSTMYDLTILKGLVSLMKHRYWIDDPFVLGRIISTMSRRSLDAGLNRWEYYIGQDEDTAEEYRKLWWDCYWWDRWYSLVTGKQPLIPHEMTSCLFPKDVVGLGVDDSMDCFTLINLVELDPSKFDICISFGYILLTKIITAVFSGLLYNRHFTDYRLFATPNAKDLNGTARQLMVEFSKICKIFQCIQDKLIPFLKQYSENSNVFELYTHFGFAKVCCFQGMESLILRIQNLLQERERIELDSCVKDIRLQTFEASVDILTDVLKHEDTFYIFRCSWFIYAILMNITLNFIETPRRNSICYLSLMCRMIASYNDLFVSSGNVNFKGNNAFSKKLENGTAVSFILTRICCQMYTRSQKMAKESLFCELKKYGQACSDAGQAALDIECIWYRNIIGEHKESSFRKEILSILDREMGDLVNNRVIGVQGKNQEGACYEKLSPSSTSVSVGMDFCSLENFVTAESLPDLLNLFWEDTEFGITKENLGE
As to the kind of experiment: PBM E-score (8-mer binding enrichment) (E-score (-0.5 to 0.5)); higher = stronger / more preferred TF binding. Particulars: protein concentration: 100 nM; construct: GST-full length. Summed up: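 Yeast transcription factors, full-length or as DNA-binding domains, were expressed with a GST tag using PURExpress in vitro transcription/translation. At about 100-200 nM they were applied to universal all-10-mer Agilent arrays, double-stranded by primer extension on fresh or once-stripped slides. Fluorescent anti-GST detected bound protein, and masliner normalised the scans. E-scores for ungapped eight-base words, pooled with reverse complements, came from the Universal PBM Analysis Suite.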
With ATATAAGG, the “PBM E-score” value came out at 0.215. For AACCTTCT, the “PBM E-score” value was -0.00663. As for CGGGCACG, the “PBM E-score” value was 0.0243. In the case of GTAATATA, the “PBM E-score” value came out at 0.244. Take ACTGGGCA: the “PBM E-score” value was -0.199.

Take ACGTCGCA: the “PBM E-score” value is -0.185. Regarding GTATGCTA, the “PBM E-score” value was -0.0379.

Regarding CCGCTAGG, the “PBM E-score” value was -0.0666. For CACCACAA, the “PBM E-score” value worked out at 0.0264. The value for CCGCCGCA was 0.0998. Turning to CTCTCATC, the “PBM E-score” value was -0.172.

Consider CCCGGATA, for which the “PBM E-score” value came to 0.286. On to CGTCCACA, for which the “PBM E-score” value was -0.095. Take CGGATCAA: the “PBM E-score” value stood at 0.318. As for CGGACACC, the “PBM E-score” value was determined as 0.127. As to AGCGGAGC, the “PBM E-score” value was -0.0345. The value for GGGCGTTA was -0.123. Next, GTCCGACA: 0.201. In the case of TAGTCTGA, the “PBM E-score” value came to 0.0733. As to ACACCGAC, the “PBM E-score” value worked out at 0.153. For ATGATTTA, the “PBM E-score” value is 0.141. Turning to GGCAAATA, the “PBM E-score” value amounted to 0.152. The value for CATCGGGA was 0.163. Next, CAGGAGGG: -0.237; GTCCCATA: -0.202. Take GCAACCAA: the “PBM E-score” value stood at 0.124.

Turning to CTTCCCAC, the “PBM E-score” value was -0.0708. The value for AGAACTAA was 0.18. Next, GGAACACC: 0.081; ATCGACGG: -0.124. Next, TCAACGCA: -0.0171. GACCCTCC: the “PBM E-score” value is -0.0144. The value for GACGGTGA was -0.106.

Regarding CGTAGAGC, the “PBM E-score” value is -0.116. Regarding CCATTCGA, the “PBM E-score” value was -0.13.

For the sequence CATAATTA, the “PBM E-score” value was 0.233. For CTCCGAGC, the “PBM E-score” value came to 0.271.

As for AAGATGTA, the “PBM E-score” value was -0.0561.

Take ACGGGTTC: the “PBM E-score” value stood at 0.0138.

In the case of ACCCTAAT, the “PBM E-score” value was -0.114. In the case of GGCTCTAC, the “PBM E-score” value is -0.0478. On to TAAGACAA, for which the “PBM E-score” value is 0.0651. On to GGCTCAAC, for which the “PBM E-score” value worked out at 0.00041. The value for CCGAAATC was 0.284; that for CGTCTTAC was -0.0959; that for CCCTTACG was -0.254. As to TGTGCAAA, the “PBM E-score” value was -0.116. Turning to CATATCTA, the “PBM E-score” value stood at 0.0744. On to AGCGGGTA, for which the “PBM E-score” value is -0.0774.

For the sequence AACACGCA, the “PBM E-score” value came out at 0.0105.

For the sequence CGTCTCCC, the “PBM E-score” value stood at 0.0152. As for GCATGCGC, the “PBM E-score” value is -0.0828. On to AGACTTGA, for which the “PBM E-score” value is -0.0487. Next, AGTACAAT: 0.139.

As for TGTTGGAA, the “PBM E-score” value is 0.127.

Consider CATGCCCC, for which the “PBM E-score” value was -0.232.

AGCAGATC: the “PBM E-score” value was -0.00356.

As for ATATTTGC, the “PBM E-score” value came out at 0.207. As to ATCGCAGG, the “PBM E-score” value was -0.173. The value for GAGCGTGC was -0.0226; that for AAATAACG was 0.085; that for GCAGAGGC was -0.21.

As for CGGGCGAG, the “PBM E-score” value was found to be 0.0378. For the sequence ATCGCCTG, the “PBM E-score” value is -0.0991.

As for AGACGCAA, the “PBM E-score” value was 0.127. Consider GGGCAGAA, for which the “PBM E-score” value came to 0.0881.

For the sequence ATTGAGAC, the “PBM E-score” value was determined as 0.0754. The value for CACTTTAG was -0.228.

For the sequence GGATGTAA, the “PBM E-score” value was determined as 0.193.

With GGATTCTA, the “PBM E-score” value amounted to 0.0641. As to ATCTGTTC, the “PBM E-score” value is 0.0367. For the sequence CTCGTAGC, the “PBM E-score” value was -0.0534. Next, AGCGAGGA: 0.00211; CATGAAAG: -0.05; CATACGGA: 0.263. Regarding CCGGGCGC, the “PBM E-score” value came out at 0.178. Next, AGGGCAAA: -0.0339; GCGCAAAC: -0.0188; GCTGCAAC: -0.0333.

Regarding ATGTGTTC, the “PBM E-score” value turned out to be 0.163. On to GCCAGCAC, for which the “PBM E-score” value is -0.154. The value for TCCGGAAA was 0.449; that for TCGACGAA was 0.116; that for CGCACCCG was 0.134. The value for GTTAGGAA was 0.0947; that for CACATGAG was -0.293.
